# Results are given in words; binding and its absence hold for the method and conditions named. Binding can be weak; no strength is given.
# By UniProt entry, the sequences of proteins in these tests, tags left out. Where a name states a change or a piece, a line headed by the entry shows the natural chain unless it says otherwise.
# UniProt Q9BY76: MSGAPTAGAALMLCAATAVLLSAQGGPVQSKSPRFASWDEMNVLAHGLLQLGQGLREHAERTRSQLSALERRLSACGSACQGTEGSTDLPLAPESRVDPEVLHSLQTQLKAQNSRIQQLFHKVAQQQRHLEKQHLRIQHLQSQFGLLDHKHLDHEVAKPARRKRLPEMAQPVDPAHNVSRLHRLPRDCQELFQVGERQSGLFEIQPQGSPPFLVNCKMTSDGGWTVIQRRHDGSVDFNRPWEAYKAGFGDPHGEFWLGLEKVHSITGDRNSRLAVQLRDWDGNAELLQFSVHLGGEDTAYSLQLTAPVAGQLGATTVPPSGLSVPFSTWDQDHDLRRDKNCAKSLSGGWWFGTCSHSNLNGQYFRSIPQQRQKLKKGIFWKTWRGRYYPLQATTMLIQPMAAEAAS
# B1: anti-ANGPTL4 monoclonal antibody 1.7.1 (antibody, human IgG2, V domains shown)
# VH: QVQLVESGGGVVQPGRSLRLSCAASGFTFSSYGIHWIRQAPGKGLEWVAVIWYDGSHKYYADSVKGRFTISRDNSKNTLYLQMNSLRAEDTAVYYCARDGITMVRGVLYYFYGMDVWGQGTTVTVSS
# VL: DIQMTQSPSSLSASVGDRVTITCRASQGISNYLAWYQQKPGKVPKLLIYAASTLQSGVPSRFSGSGSGTDFTLTISSLQPEDFATYYCQEFNSAPLTFGGGTKVEIKR
# B2: anti-ANGPTL4 monoclonal antibody 1.7.2 (antibody, human IgG2, V domains shown)
# VH: QVQLVESGGGVVQPGRSLRLSCAASGFTFSSYGIHWIRQAPGKGLEWVAVIWYDGSHKYYADSVKGRFTISRDNSKNTLYLQMNSLRAEDTAVYYCARDGITMVRGVLYYFYGMDVWGQGTTVTVSS
# VL: DIQMTQSPSSLSASVGDRVTITCRASQGISNYLAWYQQKPGKVPKLLIYAASTLQSGVPSRFSGSGSGTDFTLTISSLQPEDFATYYCQEFNSAPLTFGGGTKVEIKR
# B3: anti-ANGPTL4 monoclonal antibody 1.7.3 (antibody, human IgG2, V domains shown)
# VH: QVQLVESGGGVVQPGRSLRLSCAASGFTFSSYGIHWIRQAPGKGLEWVAVIWYDGSHKYYADSVKGRFTISRDNSKNTLYLQMNSLRAEDTAVYYCARDGITMVRGVLYYFYGMDVWGQGTTVTVSS
# VL: DIQMTQSPSSLSASVGDRVTITCRASQGISNYLAWYQQKPGKVPKLLIYAASTLQSGVPSRFSGSGSGTDFTLTISSLQPEDFATYYCQEFNSAPLTFGGGTKVEIKR
# B4: anti-ANGPTL4 monoclonal antibody 1.10.1 (antibody, human IgG2, V domains shown)
# VH: QVQLVQSGAEVKKPGASVKDSCKASGFTFTSYGISWVRQAPGQGLEWMGWISAYNGNKNYAQKLQGRVTMTTDTSTSTAYMELRSLRSDDTAVYYCARDDCSRASCSYYYGMDVWGQGTAVTVSS
# VL: DIVMTQTPLSLAVTPGQPASISCKSSQSLLHSDRKTYLYWYLQKPGQPPQLLIYEVSNRFSGVPDRFSGSGSGTDFTLKISRVEAEDVGVYYCMQSIQLPWTFGQGTKVEIKR
# B5: anti-ANGPTL4 monoclonal antibody 1.10.2 (antibody, human IgG2, V domains shown)
# VH: QVQLVQSGAEVKKPGASVKDSCKASGFTFTSYGISWVRQAPGQGLEWMGWISAYNGNKNYAQKLQGRVTMTTDTSTSTAYMELRSLRSDDTAVYYCARDDCSRASCSYYYGMDVWGQGTAVTVSS
# VL: DIVMTQTPLSLAVTPGQPASISCKSSQSLLHSDRKTYLYWYLQKPGQPPQLLIYEVSNRFSGVPDRFSGSGSGTDFTLKISRVEAEDVGVYYCMQSIQLPWTFGQGTKVEIKR
# B6: anti-ANGPTL4 monoclonal antibody 1.10.3 (antibody, human IgG2, V domains shown)
# VH: QVQLVQSGAEVKKPGASVKDSCKASGFTFTSYGISWVRQAPGQGLEWMGWISAYNGNKNYAQKLQGRVTMTTDTSTSTAYMELRSLRSDDTAVYYCARDDCSRASCSYYYGMDVWGQGTAVTVSS
# VL: DIVMTQTPLSLAVTPGQPASISCKSSQSLLHSDRKTYLYWYLQKPGQPPQLLIYEVSNRFSGVPDRFSGSGSGTDFTLKISRVEAEDVGVYYCMQSIQLPWTFGQGTKVEIKR
# B7: anti-ANGPTL4 monoclonal antibody 2.2.1 (antibody, human IgG2, V domains shown)
# VH: EVQLVESGGGLVKPGGSLRLSCAASGFTFSSYSMNWVRQAPGKGLEWVSSISSSSTYIYYADSVKGRFTISRDNAKNSLYLQMNSLRAEDTAVYYCARDGAIFGVVNWYFDLWGRGT
# VL: EIVLTQSPDFQSVTPKEKVTITCRASQSIGSSLHWYQQKPDQSPKLLIKYASQSFSGVPSRFSGSGSGTDFTLTINSLEAEDAATYYCHQSSNLPHTFGPGTKVDIKR
# B8: anti-ANGPTL4 monoclonal antibody 2.3.1 (antibody, human IgG2, V domains shown)
# VH: QVQLVQSGPEVKKPGASVKVSCKASGYTFTSYGINWVRQAPGQGLEWMGWIGTYNGNRNYAQKLQGRVTMTTDTSTSTAYMELRSLRSDDTAVYYCARDDFWSGYYDYFDYWGQGTLVTVSS
# VL: DIQMTQSPSSLSASVGDRVTITCRASQDINNYLAWYQQKPGKVPKLLIYAASTLQSGVPSRFSGSGSGTDFTLSISSLQPEDVATYYCQKYNSAPRTFGQGTKVEIKR
# B9: anti-ANGPTL4 monoclonal antibody 2.4.1 (antibody, human IgG2, V domains shown)
# VH: QVQLQESGPGLVKPSETLSLTCIVSGDSISGYYWSWIRQPAGKGLEWIGRIYTSGNTIYNPSLKSRVTMSVDTSKNQFSLKLSSVTAADTAVYYCARERPDYGGNFFDYWGQGTLVTVSS
# VL: EIVLTQSPDFQSVTPKEKVTITCRASQSIGSSLHWYQQKPDQSPKLLIKHASQSFSGVPSRFSGSGSGTDFTLTINSLEAEDAATYYCHQSSSLPHTFGGGTKVEIKR
# B10: anti-ANGPTL4 monoclonal antibody 2.5.1 (antibody, human IgG2, V domains shown)
# VH: EVQLVESGGGLVKPGGSLRLSCAASGFTFSSYSMNWVRQAPGKGLEWVSSISSSSSYIYYADSVKGRFTISRDNAKNSLYLQMNSLRAEDTAVYYCARDGAIFGVVNWYFDLWGRGT
# VL: EIVLTQSPDFQSVTPKEKVTITCRASQSIGSSLHWYQLKPDQSPKLLIKYVSQSFSGVPSRFSGSGSGTDFTLTISSLEAEDAATYCCHQSSSLPHTFGPGTKVDINR
# Assays:
# [1] = molecular target: Angiopoietin-like protein 4 (ANGPTL4), recombinant V5-his tagged secreted product (UniProt Q9BY76); assay: ELISA, coated ANGPTL4, hybridoma supernatant, hK detection
# [2] = molecular target: Angiopoietin-like protein 4 (ANGPTL4), recombinant V5-his tagged secreted product (UniProt Q9BY76); assay: ELISA, coated ANGPTL4, hybridoma supernatant, hIgG detection
binder,measurement,setting,value
B1,binding,[1],binds
same,binding,[2],binds
B2,binding,[1],binds
same,binding,[2],binds
B3,binding,[1],binds
same,binding,[2],binds
B4,binding,[1],binds
same,binding,[2],binds
B5,binding,[1],binds
same,binding,[2],binds
B6,binding,[1],binds
same,binding,[2],binds
B7,binding,[1],binds
same,binding,[2],binds
B8,binding,[1],binds
same,binding,[2],binds
B9,binding,[1],binds
same,binding,[2],binds
B10,binding,[1],binds
same,binding,[2],binds
